These are yes or no findings as the source states them, for the method shown. Some binding calls cover weakened binding; strength is not graded here.
Molecular target: recombinant human CD45 (human) (UniProt P08575)
Experiment: ELISA

Protein sequences, listed by entry. Tags and fused reporters are not part of them. Residues count along the entry.
UniProt P08575, residues 26-577: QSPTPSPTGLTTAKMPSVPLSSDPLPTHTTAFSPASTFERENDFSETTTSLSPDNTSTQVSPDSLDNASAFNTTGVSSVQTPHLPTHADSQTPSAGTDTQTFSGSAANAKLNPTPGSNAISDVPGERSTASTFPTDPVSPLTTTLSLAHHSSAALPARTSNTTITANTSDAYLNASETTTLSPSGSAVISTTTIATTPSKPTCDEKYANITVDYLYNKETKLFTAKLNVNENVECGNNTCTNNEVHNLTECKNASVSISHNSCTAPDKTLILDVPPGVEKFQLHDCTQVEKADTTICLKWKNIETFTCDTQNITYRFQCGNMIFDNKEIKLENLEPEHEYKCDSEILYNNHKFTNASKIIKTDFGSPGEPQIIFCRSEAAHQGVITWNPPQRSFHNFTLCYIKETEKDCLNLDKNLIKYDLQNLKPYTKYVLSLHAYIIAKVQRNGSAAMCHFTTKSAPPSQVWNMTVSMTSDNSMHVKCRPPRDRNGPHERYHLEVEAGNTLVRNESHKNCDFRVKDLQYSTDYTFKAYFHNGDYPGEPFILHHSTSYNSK
UniProt P20138, residues 18-259: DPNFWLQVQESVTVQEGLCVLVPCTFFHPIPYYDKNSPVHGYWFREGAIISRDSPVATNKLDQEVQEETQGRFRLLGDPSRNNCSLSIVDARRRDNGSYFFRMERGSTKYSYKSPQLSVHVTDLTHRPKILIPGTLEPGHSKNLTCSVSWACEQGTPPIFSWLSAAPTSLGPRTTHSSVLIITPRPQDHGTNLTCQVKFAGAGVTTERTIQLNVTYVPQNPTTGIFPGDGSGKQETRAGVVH

- binding: binds
Substance: recombinant hCD33-Fc (from UniProt P20138 18-259) (Fc fusion)

— paper doi:10.1101/2025.07.28.667311
